Test results taken from patent US12527768B2, “Compositions comprising an anti-inflammatory drug and a dicer activator for use in the treatment of neuronal diseases” (NeuroSense Therapeutics Ltd., priority 2017, dated 2026).
Entries after “also recorded” stand apart in the source; their conditions may differ.

System: SOD1 G93R mutant zebrafish larvae
Test: Toxicity analysis of larvae (morphology, cardiovascular system, behavior, mortality)
Assay type: in vivo, zebrafish (Danio rerio)
Conditions: Ciprofloxacin 1-500 μM
Method: Treatment protocol SOD1 G93R mutant or WT fish were collected and raised according to accepted and approved protocols, see Westerfield M. The Zebrafish Book: a Guide for the Laboratory Use of Zebrafish (Danio rerio) 2000, incorporated herein as reference. Larvae's morphology was observed (heart rate, overall morphology and behavior) at each day.
Toxicity analysis Fish were observed during the day of administration and the following days to observe toxicity. Acute toxicity was evaluated for apoptosis/necrosis and cardiovascular system abnormalities (heart rate, morphology, hemorrhage and edema). Head, eyes and overall morphological and behavioral toxicity were recorded according to accepted procedures^28.

With `O=C(O)c1cn(C2CC2)c2cc(N3CCNCC3)c(F)cc2c1=O` [Ciprofloxacin] the “toxicity (morphology, behavior, mortality)” value was “no overall or subtle morphological and behavioral toxicity; also recorded: no drug induced effects in morphology or mortality were observed” and the “toxicity (morphology, behavior, mortality)” value (listed as ciprofloxacin) was “not toxic”.
